Experimental data taken from PubChem BioAssay AID344 (DTP/NCI, 2004).
Toxic doses and inconclusive results are not listed. How the source made its calls: active means survival T/C of 150% or more; inactive means T/C below 125% in these data.

System: mice, LPC-1 plasma cell tumor ip, median survival T/C
Assay: NCI In Vivo Anticancer Drug Screen. Data for tumor model Lieberman Plasma Cell No. 1 (LPC-1) (intraperitoneal) in unknown mice
Conditions: endpoint: median survival time, schedule: Q01DX028 (sc), vehicle: water, higher = longer survival
Protocol: The antitumor activity of compounds was measured in mice bearing transplantable tumors. Survival or tumor size were measured and the results are expressed as the measurement made in the treated group (T) divided by the measurement made in the vehicle treated control group (C). The tumor model used in this assay is Lieberman Plasma Cell No. 1 (LPC-1) (intraperitoneal) in unknown mice

Measured: T/C

COc1cc2c(c(OC)c1OC)-c1ccc(OC)c(=O)cc1[C@@H](N)CC2
inactive: dose: 0.25 mg/kg/injection 110 % of control | dose: 0.5 mg/kg/injection 102 % of control | dose: 1.0 mg/kg/injection 94 % of control | dose: 2.0 mg/kg/injection 112 % of control | dose: 4.0 mg/kg/injection 105 % of control
